Patent publication US20160200789A1, “IL4 CONJUGATED TO ANTIBODIES AGAINST EXTRACELLULAR MATRIX COMPONENTS” (PHILOGEN S.P.A., priority 2013, published 2016)
These are yes or no findings as the source states them, for the method shown. Binding can be weak; no strength is given.

Target: EDA antigen (EDA domain of fibronectin) coated on the BIAcore sensor chip
Assay: SPR (BIAcore), EDA antigen-coated sensor chip

binding: binds
B1: F8-IL4 (F8-(murine) IL4) (protein)
chain: EVQLLESGGGLVQPGGSLRLSCAASGFTFSLFTMSWVRQAPGKGLEWVSAISGSGGSTYYADSVKGRFTISRDNSKNTLYLQMNSLRAEDTAVYYCAKSTHLYLFDYWGQGTLVTVSSGGSGGEIVLTQSPGTLSLSPGERATLSCRASQSVSMPFLAWYQQKPGQAPRLLIYGASSRATGIPDRFSGSGSGTDFTLTISRLEPEDFAVYYCQQMRGRPPTFGQGTKVEIKSSSSGSSSSGSSSSGHIHGCDKNHLREIIGILNEVTGEGTPCTEMDVPNVLTATKNTTESELVCRASKVLRIFYLKHGKTPCLKKNSSVLMELQRLFRAFRCLDSSISCTMNESKSTSLKDFLESLKSIMQMDYS
